No constants are given. Whether binding was seen depends on the method and setting. Binding seen in cells or lysates may run through a third protein. A yes stands for co-enrichment or nearness to the bait. Other partners may have been found.

Data on nine molecules can be found in article PMC6753162.

T1: PfPrx1a wild type (P. falciparum) (UniProt Q8IL80)
T1 sequence: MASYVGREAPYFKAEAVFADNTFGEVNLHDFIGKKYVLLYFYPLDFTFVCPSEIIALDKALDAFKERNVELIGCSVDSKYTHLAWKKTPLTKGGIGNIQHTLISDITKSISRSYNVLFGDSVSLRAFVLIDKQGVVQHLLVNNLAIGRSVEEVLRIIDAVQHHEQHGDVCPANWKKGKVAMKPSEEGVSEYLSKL

B1: glutathione S-transferase (enzyme, UniProt Q8ILQ7 1-211)
chain: MGDNIVLYYFDARGKAELIRLIFAYLGIEYTDKRFGVNGDAFVEFKNFKKEKDTPFEQVPILQIGDLILAQSQAIVRYLSKKYNICGESELNEFYADMIFCGVQDIHYKFNNTNLFKQNETTFLNEDLPKWSGYFEKLLKKNHTNNNNDKYYFVGNNLTYADLAVFNLYDDIETKYPSSLKNFPLLKAHNEFISNLPNIKNYITNRKESVY
B2: fructose-bisphosphate aldolase (enzyme, UniProt Q7KQL9 1-369)
chain: MAHCTEYMNAPKKLPADVAEELATTAQKLVQAGKGILAADESTQTIKKRFDNIKLENTIENRASYRDLLFGTKGLGKFISGAILFEETLFQKNEAGVPMVNLLHNENIIPGIKVDKGLVNIPCTDEEKSTQGLDGLAERCKEYYKAGARFAKWRTVLVIDTAKGKPTDLSIHETAWGLARYASICQQNRLVPIVEPEILADGPHSIEVCAVVTQKVLSCVFKALQENGVLLEGALLKPNMVTAGYECTAKTTTQDVGFLTVRTLRRTVPPALPGVVFLSGGQSEEEASVNLNSINALGPHPWALTFSYGRALQASVLNTWQGKKENVAKAREVLLQRAEANSLATYGKYKGGAGGENAGASLYEKKYVY
B3: phosphoethanolamine N-methyltransferase (PMT) (enzyme, UniProt Q8IDQ9 1-266)
chain: MTLIENLNSDKTFLENNQYTDEGVKVYEFIFGENYISSGGLEATKKILSDIELNENSKVLDIGSGLGGGCMYINEKYGAHTHGIDICSNIVNMANERVSGNNKIIFEANDILTKEFPENNFDLIYSRDAILHLSLENKNKLFQKCYKWLKPTGTLLITDYCATEKENWDDEFKEYVKQRKYTLITVEEYADILTACNFKNVVSKDLSDYWNQLLEVEHKYLHENKEEFLKLFSEKKFISLDDGWSRKIKDSKRKMQRWGYFKATKN
B4: 60S acidic ribosomal protein P2 (PfP2) (protein, UniProt O00806 1-112)
chain: MAMKYVAAYLMCVLGGNENPSTKEVKNVLGAVNADVEDEVLNNFIDSLKGKSCHELITDGLKKLQNIGGGVAAAPAGAAAVETAEAKKEDKKEEKKEEEEEEEDDLGFSLFG
B5: phosphoglycerate kinase (enzyme, UniProt P27362 1-416)
chain: MLGNKLSISDLKDIKNKKVLVRVDFNVPIENGIIKDTNRITATLPTINHLKKEGASKIILISHCGRPDGLRNEKYTLKPVAETLKGLLGEEVLFLNDCVGKEVEDKINAAKENSVILLENLRFHIEEEGKGVDANGNKVKANKEDVEKFQNDLTKLADVFINDAFGTAHRAHSSMVGVKLNVKASGFLMKKELEYFSKALENPQRPLLAILGGAKVSDKIQLIKNLLDKVDRMIIGGGMAYTFKKVLNNMKIGTSLFDEAGSKIVGEIMEKAKAKNVQIFLPVDFKIADNFDNNANTKFVTDEEGIPDNWMGLDAGPKSIENYKDVILTSKTVIWNGPQGVFEMPNFAKGSIECLNLVVEVTKKGAITIVGGGDTASLVEQQNKKNEISHVSTGGGASLELLEGKELPGVLALSNK
B6: Ras-related protein Rab-2 (RAB2) (protein, UniProt Q9BHT6 1-213)
chain: MSPYEYLFKYIIIGDTGVGKSCLLLQFTDKRFRADHDLTIGVEFGARLVNLDNKQIKLQIWDTAGQESFRSITRSYYRGAAGALLVYDITRRETFNHLNRWLDEVRQNSNPHMAIILVGNKCDLERREVSAEEGAQFARQNGLIFLETSAKTAKNVEEAFLYTARKIYDNILEDVYDLSNESYGIKYGPNSQYSRVKLDIPSMPESRSGFSCC
B7: 40S ribosomal protein S3A (protein, UniProt O97313 1-262)
chain: MAVGKNKRTSKGKKGGKKKVTDVFTKKEWYDLKAPKMFLVRNFGKTLVTKTIGKKLATDSLKGRIYEVNLADLNNDEDQAHKKIKLSCDHIINRDCYTDFCGLSITRDKLCSLIRKGYTLIEGHTDVKTLDNYHLRMFCIAFTKKRQNQTKSTCYAQTSQIKKIRKKMVDIMTAEASKVLLKDLVKKFIPESIGKEIEKQCKKIYPLQNVLIRKVKILKRPKLDISKLMELHTDPKEESGKNVNALPESKEATNILTAELKH
B8: small GTP-binding protein sar1 (SAR1) (protein, UniProt Q8I1S0 1-192)
chain: MFIINWFRDILAHLGLSQKSARILFLGLDNAGKTTLLHMLKDDRVAQHVPTLHPHSEELVVGKIRFKTFDLGGHETARRIWRDYFAAVDAVVFMIDTTDRSRFDEAREELRHLLETEELSNVPFVVLGNKIDKPDAASEDELRQHLNLFSNITVHNNMKGGSGVRPVELFMCSVIRRMGYAAAFKWISQFLT
B9: S-adenosylmethionine decarboxylase/ornithine decarboxylase (enzyme, UniProt Q8IJ77 1-1434)
chain: MNGIFEGIEKRVVIKLKESFFKGNRNVNSFLDIPKELWEEKLKYIGCSIVSEISEDKNERRGERCRVYLLSESSLYIFDDSLFIKTCGKTRVLFFIPFVVDLLIYHMDNVGIIEKNCVYDETFIENEKFHNIAEFIKEHFLYCFFTHMNYRNKTKDGYFEQEYPHKSLEDEKKFFEFFFKNVQMYNTHLPMEKMHYIFFYSSDDVHMTDIASTFKFCSEIHLFGINKYNEKNQFHDAYLNNKSLNLFTRVHEDNLKLYDSSDADKEVTTHIYSTRGTYEDTGMVNCVDVIYKNESTLLNRNNIENIPSIENKESNNNSRCCHNNNYSGSCHNIVSVVPSERNNDHVHHRHYEDTLNRSNISAEDNNRNAQLEKEKDEDVRRDDEENKVLIKMIDTNLYECINYNKESFLYNEFYFTPCGYSCNVSEKNNYFCVHYSPEDSVSYVSVEVSSNLSCDRFLDFMHKQLNFYNGKYMFMINYVFCEESNNMSKMVPDDDNNNYSSGKSCVYYQDLNKKEKEEYYRLNKKLRNDLFINSKQFYELHTFTERTVGFMRVQYFVYKLRDVVKCVEKETLLARSSSCLFMFNNIKRNDVHDDYVTKSSNGGVIKQLTERDVDDMYEYALNFCKQNKIVVVDTNTFFDASKRKENLIKLEKVQTNEKDEYEEKDEVYRRGNNELSSLDHLDSKNNLIHMYYEKNKCDIINKDDENSTIATNNNDNNNDNNNDSSSYDKSITISRSSSCNNSHLSYSSFDNNHGNEKMKDYISVDENNNNNNNNNNNNNNNNNKNNNVLLTLQRNSDDENGKDKDNEKNDVSLENNMEKNYKEEIWNYYTKNKVEVKTLEKVLNENIDTSVVCINLQKILAQYVRFKKNLPHVTPFYSVKSNNDEVVIKFLYGLNCNFDCASIGEISKVIKLLPNLSRDRIIFANTIKSINSLIYARKENINLCTFDNLDELKKIYKYHPKCSLILRINVDFKNYKSYMSSKYGANEYEWEEMLLYAKKHNLNIVGVSFHVGSNTKNLFDFCLAIKLCRDVFDMSSNMGFNFYIINLGGGYPEELEYDNAKKHDKIHYCTLSLQEIKKDIQKFLNEETFLKTKYGYYSFEKISLAINMSIDHYFSHMKDNLRVICEPGRYMVAASSTLAVKIIGKRRPTFQGIMLKDLKDHYDPLNFAQQENKKQDETKINHNNDNNDNNDNNDNNDNNINNNNNNQKGGQGNIMNDLIITSTNDSTNKKNDHSSSQVIQNVSCTIRDKEGDNIKINTHTINNPNINGKENTVDGDNINIAHKNIGNNFSSSNSKLGNITNIKKKVVNINDNRYNYFSYYVSDSIYGCFSGIIFDEYNRCPIYVIKNKNNPNQNFMNFNLYLANVFGQSCDGLDMINSITYLPECYINDWLLYEYAGAYTFVSSSNFNGFKKCKKVYIFPESKPSLKGQPNKHW

For one experiment, the target named is PfPrx1m^C187S (P. falciparum). Briefly: affinity purification with mass spectrometry; […], RT, 2 h; […], pH 8.0; […]; only the target purified.
For B1, the binding result is on record as “binds”.

The target of another experiment is PfPrx1a^C50S (P. falciparum). Described as above.
With B2, the binding entry is recorded as “binds”.

Take B3: the binding entry was “binds”.

In the case of B4, the binding entry is on record as “binds”.

For B5, the binding result is reported as “binds”.

The next experiment deals with T1, PfPrx1a wild type (P. falciparum). Description: affinity purification with mass spectrometry; mixed disulfide fishing: reduced His-tagged Prx (wild type or Cys mutant) coupled to CNBr-activated Sepharose 4B, incubated with about 6 mg P. falciparum 3D7 trophozoite lysate protein, RT, 2 h; washed with 100 mM Tris, 500 mM NaCl, pH 8.0; eluted with 10 mM DTT; proteins found in two or three of three experiments, those on empty beads subtracted; only the target purified.
As for B6, the binding entry is “binds”.

For B7, the binding result is “binds”.

For B2, the binding result is listed as “binds”.

Regarding B8, the binding entry was “binds”.

For the molecule B3, the binding entry was “binds”.

Consider B4, for which the binding entry was “binds”.

For B9, the binding entry is given as “binds”.

As to B5, the binding result is recorded as “binds”.
